# PubChem BioAssay AID1671190 (National Center for Advancing Translational Sciences (NCATS), 2021)
# Amino acid sequences for entries named in this document (tags omitted). A change or cut given only in a name is not applied to a line headed by its entry.
# UniProt P18054: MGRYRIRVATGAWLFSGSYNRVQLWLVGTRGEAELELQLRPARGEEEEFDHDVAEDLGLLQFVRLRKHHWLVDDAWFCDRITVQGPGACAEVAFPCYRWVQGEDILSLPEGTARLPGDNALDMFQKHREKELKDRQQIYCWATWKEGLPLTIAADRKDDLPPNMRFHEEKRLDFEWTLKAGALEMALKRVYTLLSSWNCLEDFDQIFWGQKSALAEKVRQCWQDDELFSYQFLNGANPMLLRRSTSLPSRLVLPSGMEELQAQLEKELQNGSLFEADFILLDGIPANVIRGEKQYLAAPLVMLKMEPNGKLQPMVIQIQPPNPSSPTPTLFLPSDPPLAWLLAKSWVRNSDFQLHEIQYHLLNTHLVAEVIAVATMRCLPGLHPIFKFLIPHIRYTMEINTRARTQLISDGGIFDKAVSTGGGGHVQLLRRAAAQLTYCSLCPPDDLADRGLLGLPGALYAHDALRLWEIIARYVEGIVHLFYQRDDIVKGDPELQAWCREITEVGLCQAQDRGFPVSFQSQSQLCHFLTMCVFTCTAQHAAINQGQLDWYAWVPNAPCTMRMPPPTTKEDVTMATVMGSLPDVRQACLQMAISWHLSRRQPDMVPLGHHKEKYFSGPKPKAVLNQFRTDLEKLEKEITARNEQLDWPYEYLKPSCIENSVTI
# Screen size: about 580,000 compounds; about 6,100 (1.1%) were called active. Inconclusive results, whose numbers are uncertain, are shown with a selection of clear calls. Calls come from the whole dose curve; as a rule, active = well fitted inhibition curve with a large enough effect; inconclusive = small, poorly fitted or top-dose-only effect, or another doubt; inactive = no such curve, though single readings can be large or run the other way. Where the call is inconclusive, the potency comes from a doubtful curve fit.
# Target: Polyunsaturated fatty acid lipoxygenase ALOX12 (Homo sapiens) (UniProt P18054)
# Assay: Primary qHTS assay for inhibitors of human arachidonate 12S-lipoxygenase (ALOX12): Round 2
# Details: purified 12hLO, xylenol orange hydroperoxide absorbance; activity change, negative = inhibition: at 108 µM (top of the series) unless noted
# Outline: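 Purified human 12hLO (150 nM final) in 25 mM Hepes, 0.01% Triton X-100, pH 7.0 was preincubated 15 min at room temperature with compound. Then 40 uM arachidonic acid was added, 30 min. Hydroperoxide was read by Fe-XO absorbance ratio 573/405 nm.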
# % is set by controls: 0 for no effect and ±100 for the full control effect; potency is the fitted concentration of half-maximal effect.
SMILES,Potency,"activity change, negative = inhibition"
c1cc2c3c(cccc3c1)NC1(CCCCCC1)N2,"inconclusive: 89.1 µM [inhibitor, partial curve, poor fit]",
COc1ccc(S(=O)(=O)NC[C@H]2Cn3c(-c4ccc(Cl)cc4)cnc3CO2)cc1,"inconclusive: 63.1 µM [inhibitor, partial curve]",
CC(C)C[C@@H]1N[C@H](C(=O)N2CCOCC2)Cc2cn(Cc3ccncc3)c3cccc1c23,,inactive: 66.9% [at 176 µM]
O=S1(=O)CC(N2CCSCC2)CN1Cc1cn(Cc2ccccc2)nn1 (configuration not stated),"inconclusive: 44.7 µM [inhibitor, partial curve]",
Cc1noc(C)c1CSCC(=O)OCC(=O)N1CC(=O)Nc2ccccc21,"inconclusive: 31.6 µM [inhibitor, single point]",
Cc1ccc(C2C(C#N)=C(N)N(N3CCOCC3)C3=C2C(=O)CC(C)(C)C3)cc1 (configuration not stated),,inactive: -26.5%
CC(=N\Nc1ccccc1)/C(=N/O)C(=O)Nc1ccccc1,,inactive: 1.52%
CC1(CCCCc2ccccc2)COc2ccc(C(=O)NCc3ccncc3)cc2N1 (configuration not stated),,inactive: 7.32% [at 176 µM]
O=C(O)Cc1sc(NC2CC2)nc1-c1ccccc1,"inconclusive: 31.6 µM [inhibitor, partial curve, poor fit]",
Cc1cc(C)cc(OC(C)C(=O)Nc2nc3c(s2)CCCC3)c1 (configuration not stated),"inconclusive: 50.1 µM [inhibitor, partial curve, poor fit]",
O=C(COc1ccc2cc(Br)ccc2c1)N1CCOCC1,,inactive: 63.4%
NC(=O)CC(NC(=O)Cc1ccc(Br)cc1)c1ccc(NCc2cc(F)ccc2F)c([N+](=O)[O-])c1 (configuration not stated),"inconclusive: 50.1 µM [inhibitor, partial curve, poor fit]",
O=S(=O)(Nc1nc2ccccc2nc1Nc1cccc(C(F)(F)F)c1)c1cccs1,"inconclusive: 28.2 µM [inhibitor, partial curve, poor fit]",
CCOC(=O)Cc1csc(NC(=S)NC(=O)c2ccc(F)cc2)n1,,inactive: 0%
C=CCOc1cccc(C2C(C(=O)c3ccc(C)o3)=C(O)C(=O)N2c2nnc(C)s2)c1 (configuration not stated),active: 39.8 µM,
COc1cccc(OCCn2cc(C(C)=O)c3ccccc32)c1,active: 25.1 µM,
CCCc1nc2c3ccccc3ccn2c1Cc1ccccc1,"inconclusive: 39.8 µM [inhibitor, partial curve, poor fit]",
CC(C)(C)Cc1nnc(NC(=O)Cc2cccs2)s1,active: 44.7 µM,
CCc1nnc([C@@H]2CC(F)(F)CN2C(=O)c2cc(C)oc2C)o1,"inconclusive: 5.01 µM [inhibitor, full curve, poor fit]",
N#C/C(=C\c1ccc(O)c(O)c1)C(=O)NCCc1ccccc1,"inconclusive: 10 µM [inhibitor, full curve, poor fit]",
CC(=O)c1cccc(NCC(=O)c2ccc(C)c([N+](=O)[O-])c2)c1,"inconclusive: 3.98 µM [inhibitor, full curve, poor fit]",
O=C(NCCC12CC3CC(CC(C3)C1)C2)c1cccs1,,inactive: 6.13%
Cc1c(Cl)cccc1NC(=O)C1CCN(S(=O)(=O)c2ccc(N3CCCC3=O)cc2)CC1,,inactive: -24.5%
Cc1nonc1CC(=O)N1CCc2onc(-c3ccc(F)c(F)c3)c2C1,,inactive: -0.296%

SMILES,Potency,"activity change, negative = inhibition"
COC(=O)NCC(c1ccco1)N1CCN(c2ccc(F)cc2)CC1 (configuration not stated),"inconclusive: 141 µM [inhibitor, partial curve, poor fit]",
Cc1ccc(CNC(=O)NCC(=O)N(C)Cc2ccccc2)cc1,,inactive: -29.7%
O=C(O)c1ccc(Cl)c(S(=O)(=O)Nc2ccccc2C(=O)Nc2ccc(Cl)cc2)c1,"inconclusive: 39.8 µM [inhibitor, partial curve, poor fit]",
N#C/C(=C/c1ccc2c(c1)OCO2)C(=O)OCC(=O)N1CCCCC1,"inconclusive: 100 µM [inhibitor, single point]",
CCOc1ccc(Nc2ncnc3onc(-c4ccc(Cl)cc4)c23)cc1,,inactive: -26.1%
Cc1ccc(OCC(O)CN2CCN(c3ccccn3)CC2)c(C)c1 (configuration not stated),"inconclusive: 35.5 µM [inhibitor, partial curve, poor fit]",
Oc1ccc(C2=Nn3c(nnc3-c3ccco3)SC2)cc1O,active: 7.08 µM,
CCCN1CCC(=NNc2ccc(S(=O)(=O)N(CC)CC)cc2[N+](=O)[O-])CC1,"inconclusive: 50.1 µM [inhibitor, partial curve, poor fit]",
O=C(OCc1ccccc1)N1CCOCC12CCN(Cc1c[nH]c3ccccc13)CC2,"inconclusive: 20 µM [inhibitor, full curve, poor fit]",
CCOCc1nnc(NC(=O)c2c(OC)cccc2OC)s1,"inconclusive: 5.62 µM [inhibitor, full curve]",
CCCc1noc(-c2ccn3c(CNC(=O)c4ccc(N(C)C)cc4)nnc3c2)n1,active: 44.7 µM,
CCOC(=O)N1CCN(C(=O)CN(c2ccc(C)c(C)c2)S(=O)(=O)c2ccccc2)CC1,"inconclusive: 79.4 µM [inhibitor, partial curve, poor fit]",
COc1ccc(NC(=O)c2cc3c(s2)CN(C2CCCC2)C3)c(C)c1,,inactive: -16.3%
COCCNC(=O)c1ccc(-c2ccc(OC)cc2C)c2ccoc12,,inactive: 18.9%
Cc1ccc(NC(=O)CCS(=O)(=O)c2cc3[nH]c(=O)c(=O)[nH]c3cc2C)cc1,,inactive: -12.4%
NNC(=S)NCc1cccnc1,,inactive: -20.2%
O=C(c1cccc(Cl)c1)N1CCN(Cc2ccncc2)CC1,"inconclusive: 3.55 µM [inhibitor, full curve, poor fit]",
FC(F)(F)c1ccccc1-c1nc(NC2CC2)c2ccccc2n1,"inconclusive: 28.2 µM [inhibitor, partial curve]",
O=C1NC2(CCCCC2)C(=O)N1/N=C/c1ccc(O)cc1O,,inactive: 0%
CCCCOc1ncnc2c1[nH]c1ccc(OCC)cc12,,inactive: 3.21%
c1ccc(CSc2nnc(SCc3ccccn3)s2)nc1,,inactive: -9.46%
CCOc1cccc(Cn2c(=O)c3sccc3n(CC(=O)N(C)C3CCCCC3)c2=O)c1,"inconclusive: 31.6 µM [inhibitor, partial curve, poor fit]",
O=c1[nH]c2ccccc2c(-c2ccccc2)c1Sc1nc2ccccc2s1,"inconclusive: 28.2 µM [inhibitor, partial curve, poor fit]",

# 11 of the compounds above, bar-delimited:
SMILES | Potency | activity change, negative = inhibition
Cc1ccc(CNC(=O)NCC(=O)N(C)Cc2ccccc2)cc1 |  | inactive: -29.7%
O=C(O)c1ccc(Cl)c(S(=O)(=O)Nc2ccccc2C(=O)Nc2ccc(Cl)cc2)c1 | inconclusive: 39.8 µM [inhibitor, partial curve, poor fit] | 
CCOc1ccc(Nc2ncnc3onc(-c4ccc(Cl)cc4)c23)cc1 |  | inactive: -26.1%
Cc1ccc(OCC(O)CN2CCN(c3ccccn3)CC2)c(C)c1 (configuration not stated) | inconclusive: 35.5 µM [inhibitor, partial curve, poor fit] | 
CCCN1CCC(=NNc2ccc(S(=O)(=O)N(CC)CC)cc2[N+](=O)[O-])CC1 | inconclusive: 50.1 µM [inhibitor, partial curve, poor fit] | 
CCOCc1nnc(NC(=O)c2c(OC)cccc2OC)s1 | inconclusive: 5.62 µM [inhibitor, full curve] | 
COc1ccc(NC(=O)c2cc3c(s2)CN(C2CCCC2)C3)c(C)c1 |  | inactive: -16.3%
COCCNC(=O)c1ccc(-c2ccc(OC)cc2C)c2ccoc12 |  | inactive: 18.9%
Cc1ccc(NC(=O)CCS(=O)(=O)c2cc3[nH]c(=O)c(=O)[nH]c3cc2C)cc1 |  | inactive: -12.4%
FC(F)(F)c1ccccc1-c1nc(NC2CC2)c2ccccc2n1 | inconclusive: 28.2 µM [inhibitor, partial curve] | 
O=c1[nH]c2ccccc2c(-c2ccccc2)c1Sc1nc2ccccc2s1 | inconclusive: 28.2 µM [inhibitor, partial curve, poor fit] | 
